Reference: patent US20120093850A1
These are yes or no findings as the source states them, for the method shown. Some entries that bind do so weakly or less than the wild type.

Protein sequences, listed by entry. Tags and fused reporters are not part of them. Lines headed by an entry give the natural chain unless they say otherwise; changes in a name come on top.
UniProt Q2FKG1: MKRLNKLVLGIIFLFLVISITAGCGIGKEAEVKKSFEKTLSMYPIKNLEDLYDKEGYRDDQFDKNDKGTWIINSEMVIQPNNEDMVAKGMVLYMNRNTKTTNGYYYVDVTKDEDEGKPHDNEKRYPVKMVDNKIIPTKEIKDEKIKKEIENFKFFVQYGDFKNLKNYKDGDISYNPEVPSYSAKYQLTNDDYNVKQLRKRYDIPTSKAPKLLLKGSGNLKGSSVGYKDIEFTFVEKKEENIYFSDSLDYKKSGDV

Target: recombinant tag-free Sta011 (Staphylococcus aureus (NCTC 8325 strain)) (UniProt Q2FKG1)
Test: native gel, self-oligomerisation

recombinant tag-free Sta011 (from UniProt Q2FKG1 24-255)
binding: binds
